{"source": "PubChem BioAssay AID1159575", "about": "(Broad Institute, 2015)", "assay": "P. falciparum Dd2 blood-stage growth inhibition, SYBR Green DNA fluorescence, 384-well dose response (AID 1159575)", "conditions": "P. falciparum Dd2 in erythrocytes, 72 h; at 10 µM (top of the series)", "note": "Some of the results follow. Results with a measured potency or affinity are listed apart. The source made no clear call on entries shown without one."}
{"smiles": "COc1ccc(-c2ccccc2[C@H]2[C@@H](CO)N(C(=O)C3CCCC3)[C@H]2C#N)cc1", "values": [{"measurement": "activity change, negative = inhibition", "value": -5.67, "unit": "%"}]}
